The record followed here is paper PMC3229559.

The target of this assay is CnA 20-mer peptides of the autoinhibitory domain on the CnA peptide array. Description: peptide or protein array; array of immobilized CnA 20-mer peptides (whole of CnA) with 3 amino acids offset on cellulose membrane, overlaid with a biotinylated peptide of the cytoplasmic region of syndecan-4 or its pS179 form overnight at 4°C; detected with anti-biotin-HRP; both purified.

These are yes or no findings as the source states them, for the method shown. Binding can be weak; no strength is given.

With RMKKKDEGSYDLGKKPIYKKAPTNEFYA (biotin on the N-terminus), the binding result is “binds”.

On to RMKKKDEGSYDLGKKPIYKKAPTNEFYA (phosphoserine at 179 (pS); biotin on the N-terminus), for which the binding entry is “binds weakly”.
